# The list shows a part of the results. These are further read-outs of the screen, such as a control signal, another cell line or another target. No call is given for them. Compounds called inactive in the main read-out are mostly missing here. The note in brackets gives the kind of curve behind each potency; many fits are weak.
# Assay: IkB Signaling
# Conditions: ABC-DLBCL IkBa-CBG/CBR dual luciferase ratio (green luciferase fused to IkBa over red control in OCI-Ly3 lymphoma cells), 4 h
# How it was run: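 In this assay, an IκBα–CBG68 fusion accumulates when IKK-driven degradation is blocked; native CBR normalizes for cell number. OCI-Ly3 cells were treated 4 h with compound and doxycycline, then green and red light read after Chroma-Glo addition.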
# [1] = measured here: control luc red channel unless noted
smiles,measurement,setting,value
CCCCNC(=O)c1ccc2c(c1)ncn2-c1cc(OC)ccc1OC,AC50,[1],"7.94 µM [rising, single point]"
O=C(Nc1ccccc1F)c1ccc2c(Cl)c3c(nc2c1)CCC3,AC50,[1],"1.26 µM [falling, partial curve]"
CCOc1ccccc1CNCc1cccn1-c1nnc(N2CCN(c3ccccc3)CC2)s1,AC50,[1],"20 µM [falling, single point]"
COc1ccc2[nH]cc(CCNc3nc(-c4cccnc4)nc4ccccc34)c2c1,AC50,[1],"3.16 µM [falling, partial curve] [measured here: IkB-luc green channel]"
O=C(c1noc2c1CCCC2)N1CCN(C(c2ccccc2)c2ccccc2)CC1,AC50,[1],"7.94 µM [falling, partial curve]"
Cc1ccc2nc(NC(=O)CSc3nc4c(c(=O)n3C)SC(C)C4)sc2c1 (stereo not drawn),AC50,[1],"6.31 µM [falling, partial curve]"
COc1ccccc1NC(=O)CN1CCN(c2ccc(Cl)cc2)CC1,AC50,[1],"12.6 µM [falling, partial curve]"
NC(=O)c1oc2ccc(Cl)cc2c1N,AC50,[1],"15.8 µM [falling, partial curve]"
COc1ccc(S(=O)(=O)Nc2ccc(-c3cn4c(C)csc4n3)cc2)cc1,AC50,[1],"0.794 µM [falling, full curve]"
COc1ccccc1S(=O)(=O)Cc1ccc(C(=O)NCc2ccc(Cl)cc2)o1,AC50,[1],"15.8 µM [falling, single point]"
COc1cc(NC(=O)CCc2c(C)nn(-c3ccc4nnc(C)n4n3)c2C)cc(OC)c1OC,AC50,[1],"7.94 µM [rising, partial curve, poor fit]"
CCOC(=O)C1CCN(C(=O)COc2cccc(C)c2)CC1,AC50,[1],"3.16 µM [falling, partial curve]"
O=C(CSc1nc2c([nH]c3ccccc32)c(=O)n1-c1ccccc1)N1CCc2ccccc21,AC50,[1],"31.6 µM [rising, partial curve]"
COc1ccc(C2C(=O)N(C3CCCCCC3)CC(=O)N2Cc2ccc(C)cc2)cc1 (stereo not drawn),AC50,[1],"39.8 µM [falling, single point]"
O=C1CC(c2nc(-c3ccc(Cl)cc3)no2)CN1c1ccc2c(c1)OCCO2 (stereo not drawn),AC50,[1],"25.1 µM [falling, single point]"
O=C1C(c2ccc(F)cc2)N(CCc2ccc(Cl)cc2)C(=O)CN1C1CCCCCC1 (stereo not drawn),AC50,[1],"5.01 µM [falling, partial curve, poor fit]"
CC(C)(C)CC(=O)NCC(c1ccc2c(c1)OCO2)N1CCN(c2ccccc2)CC1 (stereo not drawn),AC50,[1],"31.6 µM [falling, partial curve]"
CC(=O)c1ccc(NC(=O)c2cc(-c3ccc(C)s3)nc3ccccc23)cc1,AC50,[1],"20 µM [falling, single point]"
O=C(CSc1nccn1-c1ccc(Cl)cc1)Nc1ccc(Cl)c(Cl)c1,AC50,[1],"20 µM [falling, single point]"
COc1cc(NC(=O)N2c3ccccc3Sc3ccccc32)cc(OC)c1,AC50,[1],"10 µM [falling, partial curve]"
CN1CCN(c2ccc(Cl)cc2NC(=O)C2COc3ccccc3O2)CC1 (stereo not drawn),AC50,[1],"7.94 µM [falling, full curve]"
CCOC(=O)N1CCc2c(sc3c2c(=O)n(CCc2ccccc2)c(=O)n3CC(=O)Nc2ccc(C)cc2)C1,AC50,[1],"10 µM [falling, partial curve]"
COc1ccccc1C(=O)NCC(c1cccnc1)N1CCc2ccccc2C1 (stereo not drawn),AC50,[1],"0.158 µM [falling, full curve]"
Cc1cccc(N2CCN(C(=O)CN3C(=O)CSc4c3c(C)nn4-c3ccccc3)CC2)c1C,AC50,[1],"20 µM [falling, partial curve]"
CCCOC(=O)c1c(NC(=O)C(C)Sc2nc(-c3ccccc3)cc(C(F)(F)F)n2)sc(C(=O)N(C)C)c1C (stereo not drawn),AC50,[1],"10 µM [falling, partial curve]"
CN1CCc2c(sc(NC(=O)CSc3ccccc3)c2-c2nc3ccccc3s2)C1,AC50,[1],"10 µM [rising, partial curve, poor fit]"
O=C(N/N=C\c1ccc([N+](=O)[O-])o1)c1ccc(O)cc1,AC50,[1],"2 µM [falling, full curve]"
Cc1c(C)n(C(=O)CN2CCN(c3ccccn3)CC2)c2ccccc12,AC50,[1],"12.6 µM [falling, partial curve]"
COc1ccc(CCNC(=O)C2CCC(CNS(=O)(=O)c3ccc(C)cc3)CC2)cc1OC (stereo not drawn),AC50,[1],"1.26 µM [rising, full curve, poor fit]"
Cc1ccc(Cl)cc1NC(=O)Nc1nnc(N(C)Cc2ccccc2)s1,AC50,[1],"10 µM [falling, partial curve]"
CCC1CN(C(=O)N2CCC(C(=O)NCCc3ccccc3Cl)CC2)c2cc(C)ccc2O1 (stereo not drawn),AC50,[1],"25.1 µM [falling, single point]"
CCCCC(=O)NCCc1c(Cc2ccccc2)[nH]c2ccccc12,AC50,[1],"25.1 µM [falling, partial curve]"
COc1cc(NC(=O)CN2c3ccccc3S(=O)(=O)c3ccccc32)cc(OC)c1,AC50,[1],"2.51 µM [falling, full curve]"
COCCNC(=O)CSc1nc(-c2cc(OC)c(OC)c(OC)c2)[nH]c1-c1ccc(Cl)cc1,AC50,[1],"25.1 µM [falling, single point]"
COc1cc(NCC[C@@H]2CCCCN2)c2ncccc2c1,AC50,[1],"3.16 µM [falling, partial curve]"
Cc1ccc(C(=O)CSc2nc(-c3ccccc3)nc3c2CCCC3)c(C)c1,AC50,[1],"39.8 µM [falling, partial curve]"
C#CCOC(=O)c1ccccc1C(=O)n1nnc2ccccc21,AC50,[1],"12.6 µM [falling, partial curve]"
Cn1cc(/C=N/n2cnc3scc(-c4ccc(Cl)cc4)c3c2=O)c2ccccc21,AC50,measured here: IkB-luc green channel,"3.16 µM [rising, partial curve]"
same,AC50,measured here: control luc red channel,"1 µM [rising, full curve, poor fit]"
COc1cccc(-c2ccc3ncnc(NCc4ccccc4)c3c2)c1,AC50,[1],"3.98 µM [falling, partial curve]"
CCOc1ccccc1NC(=O)c1ccc2c(Cl)c3c(nc2c1)CCC3,AC50,[1],"1.26 µM [falling, full curve]"
CC(C)(C)c1ccc(C(=O)Nc2ccc3c(c2)CCCN3C(=O)c2cccs2)cc1,AC50,[1],"3.98 µM [falling, full curve]"
CCn1c(SCC(N)=O)nnc1-c1cc2c(C)nn(-c3ccccc3)c2s1,AC50,[1],"12.6 µM [falling, partial curve]"
Cc1ccc(NC(=O)c2nc(S(C)(=O)=O)ncc2N(Cc2ccco2)Cc2cccs2)c(C)c1,AC50,[1],"10 µM [falling, partial curve]"
CC(=O)N1CCc2nc3sc(C(=O)c4ccc(F)cc4)c(N)c3c(C(F)(F)F)c2C1,AC50,[1],"31.6 µM [falling, single point]"
Cc1ccc(Nc2nc(N)nc(CN3CCN(Cc4ccc5c(c4)OCO5)CC3)n2)cc1Cl,AC50,[1],"12.6 µM [falling, partial curve]"
CCc1ccc(NC(=O)C(=O)NCC(c2cccnc2)N2CCN(c3ccc(F)cc3)CC2)cc1 (stereo not drawn),AC50,[1],"20 µM [falling, partial curve]"
Cc1cc2cc(CN(Cc3ccco3)C(=O)NCc3ccccc3)c(=O)[nH]c2cc1C,AC50,[1],"31.6 µM [falling, partial curve]"
Cc1nnc(N2CCC(C(=O)N3CCCCC3)CC2)c2nn(-c3ccc(Cl)cc3)c(C)c12,AC50,[1],"6.31 µM [falling, partial curve]"
Cc1ccc(OCCCCn2nnc3sc4c(c3c2=O)CCCC4)cc1,AC50,[1],"39.8 µM [falling, single point]"
COc1cc(OC)cc(C(=O)Nc2ncc3c(n2)CC(C)(C)CC3=O)c1,AC50,[1],"7.94 µM [falling, partial curve]"
CCC(c1nnnn1C(C)(C)CC)N(CCCO)Cc1cc2cc(C)cc(C)c2[nH]c1=O (stereo not drawn),AC50,[1],"31.6 µM [rising, single point] [measured here: IkB-luc green channel]"
O=C(O)CCSc1nnc(-c2ccc3c(c2)OCO3)o1,AC50,[1],"0.251 µM [falling, full curve]"
CC1CCCN(CCCNC(=O)c2coc3nc4ccccc4nc23)C1 (stereo not drawn),AC50,[1],"10 µM [falling, partial curve]"
CCOc1cc(-c2nnc(SCC(=O)NC3CCCC3)nc2-c2ccc(OC)c(OCC)c2)ccc1OC,AC50,[1],"12.6 µM [rising, single point]"
O=C1CC(c2ccco2)Cc2nc(N3CCN(Cc4ccc5c(c4)OCO5)CC3)ncc21 (stereo not drawn),AC50,[1],"7.94 µM [falling, partial curve]"
CC(C)Cn1c2c(c(O)c(C(=O)Nc3ncccc3O)c1=O)CCCC2,AC50,[1],"7.94 µM [falling, single point]"
O=C(CSc1nccn1C1CCCC1)Nc1ccc(C(F)(F)F)cc1,AC50,[1],"31.6 µM [falling, single point]"
CC(C)CCN1C(=O)c2ccccc2CC1(C)C(=O)NC1CCC(C)CC1 (stereo not drawn),AC50,[1],"0.0631 µM [rising, full curve, poor fit]"
O=C(c1ccccc1)c1ccc(C(=O)N2CCN(c3ccc(F)cc3)CC2)o1,AC50,[1],"7.94 µM [falling, full curve, poor fit]"
CC(C)c1ccc(-c2nc(C(N)=O)c3c(n2)n(-c2ccc4c(c2)OCO4)c(=O)n3C)cc1,AC50,[1],"2 µM [falling, partial curve]"
Cc1ccccc1S(=O)(=O)Cc1ccc(C(=O)NC2CCC(C)CC2)o1 (stereo not drawn),AC50,[1],"25.1 µM [falling, single point]"
Cc1ccc(CNC(=O)C2CCN(S(=O)(=O)c3ccc4[nH]c(=O)ccc4c3)CC2)cc1,AC50,[1],"0.0631 µM [falling, full curve, poor fit]"

# Another view of part of the listing above:
smiles	measurement	setting	value
O=C(O)CCSc1nnc(-c2ccc3c(c2)OCO3)o1	AC50	[1]	0.251 µM [falling, full curve]
CC1CCCN(CCCNC(=O)c2coc3nc4ccccc4nc23)C1 (stereo not drawn)	AC50	[1]	10 µM [falling, partial curve]
CCOc1cc(-c2nnc(SCC(=O)NC3CCCC3)nc2-c2ccc(OC)c(OCC)c2)ccc1OC	AC50	[1]	12.6 µM [rising, single point]
O=C1CC(c2ccco2)Cc2nc(N3CCN(Cc4ccc5c(c4)OCO5)CC3)ncc21 (stereo not drawn)	AC50	[1]	7.94 µM [falling, partial curve]
CC(C)Cn1c2c(c(O)c(C(=O)Nc3ncccc3O)c1=O)CCCC2	AC50	[1]	7.94 µM [falling, single point]

# Reference: PubChem BioAssay AID445 (National Center for Advancing Translational Sciences (NCATS), 2006)
